± gives the standard deviation of the averaged measurements. The list shows a part of the results, in another mix than the full data. Small differences around the control level are noise.

By UniProt entry, the sequences of proteins in these tests, tags left out. Where a name states a change or a piece, a line headed by the entry shows the natural chain unless it says otherwise.
UniProt P63208, whole entry: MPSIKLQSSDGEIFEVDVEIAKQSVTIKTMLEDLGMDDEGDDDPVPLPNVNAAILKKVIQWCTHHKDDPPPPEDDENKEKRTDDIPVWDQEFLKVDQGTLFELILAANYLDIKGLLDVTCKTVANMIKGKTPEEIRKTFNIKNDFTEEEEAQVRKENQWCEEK
UniProt Q9H3S4: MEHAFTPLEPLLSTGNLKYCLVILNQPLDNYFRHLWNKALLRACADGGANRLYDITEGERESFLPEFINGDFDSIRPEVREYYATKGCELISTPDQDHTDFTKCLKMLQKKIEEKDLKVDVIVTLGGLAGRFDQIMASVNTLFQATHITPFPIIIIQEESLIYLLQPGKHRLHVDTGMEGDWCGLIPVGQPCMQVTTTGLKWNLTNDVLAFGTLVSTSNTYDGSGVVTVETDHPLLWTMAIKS
UniProt O75251, whole entry: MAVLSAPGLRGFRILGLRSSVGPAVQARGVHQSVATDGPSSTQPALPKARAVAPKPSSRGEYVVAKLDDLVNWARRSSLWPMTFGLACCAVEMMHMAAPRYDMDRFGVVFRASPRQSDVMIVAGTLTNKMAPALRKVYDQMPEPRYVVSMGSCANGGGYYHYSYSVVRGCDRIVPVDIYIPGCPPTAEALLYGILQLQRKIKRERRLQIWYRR
UniProt Q9Y2E5: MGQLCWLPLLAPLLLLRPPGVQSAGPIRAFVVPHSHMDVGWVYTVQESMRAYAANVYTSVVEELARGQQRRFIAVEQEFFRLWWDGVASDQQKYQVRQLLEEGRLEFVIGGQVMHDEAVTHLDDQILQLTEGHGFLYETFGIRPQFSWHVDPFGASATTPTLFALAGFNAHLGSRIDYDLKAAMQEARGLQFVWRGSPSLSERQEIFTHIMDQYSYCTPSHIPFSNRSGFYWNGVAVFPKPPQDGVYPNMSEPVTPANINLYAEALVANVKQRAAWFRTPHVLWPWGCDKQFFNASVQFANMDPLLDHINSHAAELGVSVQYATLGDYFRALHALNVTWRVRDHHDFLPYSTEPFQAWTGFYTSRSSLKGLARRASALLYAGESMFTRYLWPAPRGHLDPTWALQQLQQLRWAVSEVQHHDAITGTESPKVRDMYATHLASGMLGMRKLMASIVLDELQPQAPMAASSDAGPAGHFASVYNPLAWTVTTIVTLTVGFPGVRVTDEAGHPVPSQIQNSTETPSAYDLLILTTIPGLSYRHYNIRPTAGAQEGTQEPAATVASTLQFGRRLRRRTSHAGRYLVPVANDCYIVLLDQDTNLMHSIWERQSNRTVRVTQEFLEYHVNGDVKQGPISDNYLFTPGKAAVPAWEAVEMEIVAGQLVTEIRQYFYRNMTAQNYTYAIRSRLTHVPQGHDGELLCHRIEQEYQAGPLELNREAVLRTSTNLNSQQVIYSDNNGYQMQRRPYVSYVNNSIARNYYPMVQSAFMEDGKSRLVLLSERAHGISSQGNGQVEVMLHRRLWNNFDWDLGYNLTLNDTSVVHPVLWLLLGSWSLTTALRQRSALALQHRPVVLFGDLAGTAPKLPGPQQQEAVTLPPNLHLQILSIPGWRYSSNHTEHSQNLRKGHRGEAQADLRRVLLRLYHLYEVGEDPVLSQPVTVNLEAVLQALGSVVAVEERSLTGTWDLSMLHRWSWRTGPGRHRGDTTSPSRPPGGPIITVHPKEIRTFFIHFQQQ
UniProt P53667: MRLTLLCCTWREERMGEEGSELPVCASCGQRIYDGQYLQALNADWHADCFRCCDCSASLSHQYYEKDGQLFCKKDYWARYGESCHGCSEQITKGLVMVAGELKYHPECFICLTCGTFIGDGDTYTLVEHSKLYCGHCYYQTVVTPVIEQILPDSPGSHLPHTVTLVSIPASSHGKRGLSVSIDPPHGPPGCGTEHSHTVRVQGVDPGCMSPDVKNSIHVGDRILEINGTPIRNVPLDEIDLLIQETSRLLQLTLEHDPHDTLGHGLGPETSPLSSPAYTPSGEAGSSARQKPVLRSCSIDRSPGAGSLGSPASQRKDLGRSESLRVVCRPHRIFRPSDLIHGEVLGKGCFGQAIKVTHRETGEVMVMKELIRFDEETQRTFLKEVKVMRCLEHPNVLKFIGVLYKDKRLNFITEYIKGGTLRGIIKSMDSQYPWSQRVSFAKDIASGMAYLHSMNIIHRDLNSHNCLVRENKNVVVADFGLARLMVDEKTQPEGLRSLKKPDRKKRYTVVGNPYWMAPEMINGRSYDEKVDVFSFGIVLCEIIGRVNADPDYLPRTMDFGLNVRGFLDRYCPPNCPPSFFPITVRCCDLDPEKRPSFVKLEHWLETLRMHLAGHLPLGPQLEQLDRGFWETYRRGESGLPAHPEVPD
UniProt Q9BQE3, whole entry: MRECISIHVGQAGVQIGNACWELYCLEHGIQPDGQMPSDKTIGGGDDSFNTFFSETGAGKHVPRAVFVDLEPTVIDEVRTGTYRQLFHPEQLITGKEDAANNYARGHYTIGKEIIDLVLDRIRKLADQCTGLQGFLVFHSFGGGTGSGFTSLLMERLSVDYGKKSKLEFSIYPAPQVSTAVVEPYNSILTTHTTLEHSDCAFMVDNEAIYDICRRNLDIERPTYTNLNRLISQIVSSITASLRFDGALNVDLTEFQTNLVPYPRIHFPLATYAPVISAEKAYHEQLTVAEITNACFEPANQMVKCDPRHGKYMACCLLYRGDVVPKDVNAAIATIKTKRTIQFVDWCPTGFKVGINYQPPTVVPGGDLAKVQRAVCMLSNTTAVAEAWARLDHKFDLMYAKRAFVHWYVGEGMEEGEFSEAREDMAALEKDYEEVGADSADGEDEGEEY
UniProt Q9BZF9: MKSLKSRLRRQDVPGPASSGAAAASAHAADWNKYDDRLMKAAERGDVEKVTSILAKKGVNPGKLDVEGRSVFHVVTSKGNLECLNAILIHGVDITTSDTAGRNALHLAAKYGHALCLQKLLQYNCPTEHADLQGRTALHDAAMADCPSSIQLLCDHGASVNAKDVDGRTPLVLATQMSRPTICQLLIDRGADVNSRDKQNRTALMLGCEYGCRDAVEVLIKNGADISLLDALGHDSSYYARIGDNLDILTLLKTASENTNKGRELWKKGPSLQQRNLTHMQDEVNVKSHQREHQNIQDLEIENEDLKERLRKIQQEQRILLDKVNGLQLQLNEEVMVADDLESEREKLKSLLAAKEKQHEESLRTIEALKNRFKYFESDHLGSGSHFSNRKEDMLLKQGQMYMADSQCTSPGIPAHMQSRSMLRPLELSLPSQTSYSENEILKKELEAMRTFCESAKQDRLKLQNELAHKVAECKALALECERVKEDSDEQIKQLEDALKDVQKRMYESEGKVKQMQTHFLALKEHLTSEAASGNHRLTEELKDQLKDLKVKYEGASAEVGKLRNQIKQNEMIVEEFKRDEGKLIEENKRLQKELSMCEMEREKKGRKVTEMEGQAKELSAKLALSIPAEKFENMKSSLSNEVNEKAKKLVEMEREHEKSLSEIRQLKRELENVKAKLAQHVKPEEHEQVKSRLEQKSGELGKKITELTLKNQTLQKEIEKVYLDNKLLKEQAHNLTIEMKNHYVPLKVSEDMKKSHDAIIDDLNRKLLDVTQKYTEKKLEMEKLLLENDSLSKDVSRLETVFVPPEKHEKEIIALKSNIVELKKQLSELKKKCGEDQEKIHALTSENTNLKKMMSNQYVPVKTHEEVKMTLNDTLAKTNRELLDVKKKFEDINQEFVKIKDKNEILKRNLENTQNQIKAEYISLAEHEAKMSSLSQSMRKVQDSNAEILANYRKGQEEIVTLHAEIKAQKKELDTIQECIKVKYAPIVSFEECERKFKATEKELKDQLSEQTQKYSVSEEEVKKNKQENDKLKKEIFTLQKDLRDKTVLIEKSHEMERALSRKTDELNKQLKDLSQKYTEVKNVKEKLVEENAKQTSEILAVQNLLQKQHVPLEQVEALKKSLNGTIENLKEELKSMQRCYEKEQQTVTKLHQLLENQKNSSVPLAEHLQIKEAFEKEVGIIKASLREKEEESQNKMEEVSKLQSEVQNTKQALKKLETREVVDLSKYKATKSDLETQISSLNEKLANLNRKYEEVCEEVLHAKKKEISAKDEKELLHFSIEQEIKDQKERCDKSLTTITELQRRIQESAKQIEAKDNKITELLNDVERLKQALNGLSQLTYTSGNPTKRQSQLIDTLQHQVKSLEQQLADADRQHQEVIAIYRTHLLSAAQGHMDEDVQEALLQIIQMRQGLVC
UniProt Q9Y6R4: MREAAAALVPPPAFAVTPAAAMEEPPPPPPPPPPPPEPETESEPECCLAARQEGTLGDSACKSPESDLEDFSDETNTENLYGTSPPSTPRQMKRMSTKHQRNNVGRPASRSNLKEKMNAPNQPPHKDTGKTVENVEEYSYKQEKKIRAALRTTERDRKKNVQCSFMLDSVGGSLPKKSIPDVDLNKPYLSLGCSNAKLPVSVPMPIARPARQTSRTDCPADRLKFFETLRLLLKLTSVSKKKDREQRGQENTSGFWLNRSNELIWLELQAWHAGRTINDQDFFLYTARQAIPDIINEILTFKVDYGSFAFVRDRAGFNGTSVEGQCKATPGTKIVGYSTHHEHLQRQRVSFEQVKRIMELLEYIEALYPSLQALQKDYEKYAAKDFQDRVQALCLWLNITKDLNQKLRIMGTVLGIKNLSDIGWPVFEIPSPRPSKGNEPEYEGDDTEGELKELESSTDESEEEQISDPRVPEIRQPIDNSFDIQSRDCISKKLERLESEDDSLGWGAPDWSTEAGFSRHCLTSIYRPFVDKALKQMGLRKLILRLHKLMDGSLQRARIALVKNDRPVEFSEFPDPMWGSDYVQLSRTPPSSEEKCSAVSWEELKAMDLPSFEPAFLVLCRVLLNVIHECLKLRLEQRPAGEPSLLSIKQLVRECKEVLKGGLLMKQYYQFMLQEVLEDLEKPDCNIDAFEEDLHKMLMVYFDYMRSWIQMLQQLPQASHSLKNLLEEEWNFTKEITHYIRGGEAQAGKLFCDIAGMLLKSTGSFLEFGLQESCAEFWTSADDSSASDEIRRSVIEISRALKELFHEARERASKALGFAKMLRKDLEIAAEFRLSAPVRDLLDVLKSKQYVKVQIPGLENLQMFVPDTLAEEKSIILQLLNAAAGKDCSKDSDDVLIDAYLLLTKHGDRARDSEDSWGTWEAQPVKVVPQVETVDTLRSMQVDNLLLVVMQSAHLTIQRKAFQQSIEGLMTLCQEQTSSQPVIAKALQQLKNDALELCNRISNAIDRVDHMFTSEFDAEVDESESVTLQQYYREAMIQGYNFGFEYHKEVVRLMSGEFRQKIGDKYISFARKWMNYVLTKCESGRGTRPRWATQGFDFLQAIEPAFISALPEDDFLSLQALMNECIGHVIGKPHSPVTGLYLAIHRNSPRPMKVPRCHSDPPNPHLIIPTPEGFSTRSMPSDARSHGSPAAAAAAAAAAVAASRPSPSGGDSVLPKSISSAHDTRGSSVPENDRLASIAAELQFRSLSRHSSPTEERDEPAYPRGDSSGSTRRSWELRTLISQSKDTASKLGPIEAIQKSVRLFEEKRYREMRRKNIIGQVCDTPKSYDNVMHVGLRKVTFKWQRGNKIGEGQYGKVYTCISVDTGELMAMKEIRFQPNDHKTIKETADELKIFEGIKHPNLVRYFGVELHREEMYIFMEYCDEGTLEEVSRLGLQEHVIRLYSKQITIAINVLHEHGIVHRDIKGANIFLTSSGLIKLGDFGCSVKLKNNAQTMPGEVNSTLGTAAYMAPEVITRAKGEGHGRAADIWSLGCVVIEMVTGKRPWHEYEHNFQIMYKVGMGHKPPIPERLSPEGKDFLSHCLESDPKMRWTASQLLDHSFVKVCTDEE
UniProt Q9UQV4: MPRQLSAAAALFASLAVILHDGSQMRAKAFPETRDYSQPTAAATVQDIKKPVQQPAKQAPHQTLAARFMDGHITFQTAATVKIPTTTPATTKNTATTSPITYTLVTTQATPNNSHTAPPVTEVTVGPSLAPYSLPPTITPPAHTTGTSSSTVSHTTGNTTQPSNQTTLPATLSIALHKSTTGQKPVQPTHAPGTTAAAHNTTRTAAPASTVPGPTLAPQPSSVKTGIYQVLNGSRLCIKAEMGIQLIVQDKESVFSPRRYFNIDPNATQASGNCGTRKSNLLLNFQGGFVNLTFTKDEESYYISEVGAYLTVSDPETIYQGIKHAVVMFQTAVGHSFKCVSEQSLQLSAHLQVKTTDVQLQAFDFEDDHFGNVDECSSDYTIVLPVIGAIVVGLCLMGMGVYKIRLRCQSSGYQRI
UniProt P07766, whole entry: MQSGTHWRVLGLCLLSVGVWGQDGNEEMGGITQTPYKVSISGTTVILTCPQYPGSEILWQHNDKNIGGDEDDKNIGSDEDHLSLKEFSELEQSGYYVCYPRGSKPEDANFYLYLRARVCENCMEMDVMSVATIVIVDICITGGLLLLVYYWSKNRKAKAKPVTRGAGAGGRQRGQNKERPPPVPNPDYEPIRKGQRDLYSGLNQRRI
UniProt Q96A26: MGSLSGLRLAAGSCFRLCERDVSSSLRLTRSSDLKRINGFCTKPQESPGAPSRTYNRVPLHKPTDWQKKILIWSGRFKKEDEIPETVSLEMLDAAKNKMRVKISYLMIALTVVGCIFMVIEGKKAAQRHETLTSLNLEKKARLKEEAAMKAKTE

Compound in the experiment: Nc1ncnc2c1ncn2[C@@H]1O[C@H](COP(=O)(O)OP(=O)(O)OP(=O)(O)O)[C@@H](O)[C@H]1O [adenosine triphosphate]
In words: NP40-soluble protein abundance relative to vehicle (solubility fold change) (ratio); higher = more soluble protein in presence of ATP. In short, it runs like this:
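In three independent experiments, Jurkat crude lysate made by Dounce homogenisation was treated for 10 min at room temperature and then 3 min at 37 °C with eight concentrations ranging from 0.1 to 10 mM. It was then solubilised with 0.8% NP40 plus benzonase for 60 min at 4 °C and ultracentrifuged. The supernatant was TMT-labelled for LC-MS/MS, and each value is the fold change against the detergent-processed vehicle for the same replicate, using vsn-normalised intensities.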

For “E5RJR5 and related entries (UniProt P63208)”, the NP40-soluble protein abundance (concentration: 0.1mM) was 0.933 ± 0.088 and the NP40-soluble protein abundance (concentration: 0.5mM) came to 0.916 ± 0.093.
For the target “F5GZG6 and related entries (UniProt Q9H3S4)”, the NP40-soluble protein abundance was 1.039 ± 0.0073 (concentration: 0.1mM) and 0.955 ± 0.058 (concentration: 0.5mM).
On to “F5GXJ1 and related entries (UniProt O75251)”, for which the NP40-soluble protein abundance is, setting by setting: (concentration: 0.1mM) 0.941 ± 0.063; (concentration: 0.5mM) 0.938 ± 0.12.
As to “E9PCD7 and related entries (UniProt Q9Y2E5)”, the NP40-soluble protein abundance was determined as 0.942 ± 0.078 (concentration: 0.1mM) and 0.927 ± 0.11 (concentration: 0.5mM).
For the target “E9PC47 and related entries (UniProt P53667)”, the NP40-soluble protein abundance was 0.975 ± 0.057 (concentration: 0.1mM) and 0.867 ± 0.12 (concentration: 0.5mM).
In the same order, the values of “E9PB93 and related entries (UniProt O15514)” are 0.905 ± 0.13 and 0.943 ± 0.037.
As for “E5RIH5 and related entries (UniProt Q6NXR4)”, the NP40-soluble protein abundance is, setting by setting: (concentration: 0.1mM) 0.958 ± 0.024; (concentration: 0.5mM) 0.96 ± 0.045.
In the same order, the values of “F8VV56 and related entries (UniProt P08962)” are 0.9001 ± 0.0062 and 0.803 ± 0.071.
The corresponding values for G5E9A6 (UniProt P51784) are 1.08 ± 0.087 and 1.07 ± 0.083.
“F5H5D3 and related entries (UniProt Q9BQE3)”: the NP40-soluble protein abundance was 0.989 ± 0.093 (concentration: 0.1mM) and 0.964 ± 0.17 (concentration: 0.5mM).
In the case of “F5H2B9 and related entries (UniProt Q9BZF9)”, the NP40-soluble protein abundance is, setting by setting: (concentration: 0.1mM) 1 ± 0.035; (concentration: 0.5mM) 1 ± 0.051.
Take “F5H538 and related entries (UniProt Q9Y6R4)”: the NP40-soluble protein abundance (concentration: 0.1mM) was 0.988 ± 0.0064 and the NP40-soluble protein abundance (concentration: 0.5mM) was 1.01 ± 0.048.
Regarding “E7ETP9 and related entries (UniProt Q9UQV4)”, the NP40-soluble protein abundance by setting is: (concentration: 0.1mM) 0.927 ± 0.055; (concentration: 0.5mM) 0.865 ± 0.081.
With “E9PK61 and related entries (UniProt O14681)”, the NP40-soluble protein abundance reads like this: (concentration: 0.1mM) 1.03 ± 0.039; (concentration: 0.5mM) 1.01 ± 0.061.
Regarding “E9PSH8 and related entries (UniProt P07766)”, the NP40-soluble protein abundance (concentration: 0.1mM) turned out to be 1.02 ± 0.049 and the NP40-soluble protein abundance (concentration: 0.5mM) turned out to be 1.03 ± 0.037.
Turning to “F8W7Q4 and related entries (UniProt Q96A26)”, the NP40-soluble protein abundance runs as follows: (concentration: 0.1mM) 0.868 ± 0.16; (concentration: 0.5mM) 0.897 ± 0.27.
